Here are results for four substances from PMC4842972, “Identification of residues crucial for the interaction between human neuroglobin and the α-subunit of heterotrimeric Gi protein” (Scientific Reports, 2016).

Protein sequences, listed by entry. Tags and fused reporters are not part of them. Lines headed by an entry give the natural chain unless they say otherwise; changes in a name come on top. Chains listed by the source or under a name are the forms on record and can include a tag or linker. Residues count along the entry.
human WT truncated Gαi1 protein (residues 26-354), GDP-bound form (P63096, residues 26-354): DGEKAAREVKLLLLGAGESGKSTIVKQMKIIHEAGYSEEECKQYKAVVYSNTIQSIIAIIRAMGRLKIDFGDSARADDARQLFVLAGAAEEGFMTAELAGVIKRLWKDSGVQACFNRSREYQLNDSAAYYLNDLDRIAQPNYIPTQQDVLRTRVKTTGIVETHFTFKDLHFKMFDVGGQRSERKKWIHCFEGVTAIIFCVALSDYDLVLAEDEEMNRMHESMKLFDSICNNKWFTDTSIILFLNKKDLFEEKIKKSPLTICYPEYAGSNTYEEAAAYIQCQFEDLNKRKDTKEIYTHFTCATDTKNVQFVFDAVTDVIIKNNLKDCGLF
human truncated Gαi1 K46A single mutant, GDP-bound form (P63096, form named): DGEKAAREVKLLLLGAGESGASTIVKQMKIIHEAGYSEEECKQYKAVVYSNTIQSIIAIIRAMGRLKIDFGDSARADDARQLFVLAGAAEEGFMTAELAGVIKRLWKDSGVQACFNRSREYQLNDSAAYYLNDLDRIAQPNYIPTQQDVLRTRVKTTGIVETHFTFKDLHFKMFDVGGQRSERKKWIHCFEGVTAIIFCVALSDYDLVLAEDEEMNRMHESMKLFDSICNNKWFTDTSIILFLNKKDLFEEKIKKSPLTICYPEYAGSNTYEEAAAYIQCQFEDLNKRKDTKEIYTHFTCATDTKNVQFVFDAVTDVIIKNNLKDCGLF
human truncated Gαi1 K70A single mutant, GDP-bound form (P63096, form named): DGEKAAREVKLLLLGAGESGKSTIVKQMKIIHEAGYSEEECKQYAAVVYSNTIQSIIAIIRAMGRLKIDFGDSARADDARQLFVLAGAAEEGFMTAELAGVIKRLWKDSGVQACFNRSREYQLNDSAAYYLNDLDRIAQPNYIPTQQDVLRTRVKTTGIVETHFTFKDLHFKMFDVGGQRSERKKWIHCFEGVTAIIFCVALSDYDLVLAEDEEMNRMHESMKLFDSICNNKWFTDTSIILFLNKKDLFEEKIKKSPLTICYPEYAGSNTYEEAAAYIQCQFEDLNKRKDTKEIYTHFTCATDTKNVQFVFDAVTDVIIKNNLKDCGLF
human truncated Gαi1 R208A, K209A, K210A triple mutant, GDP-bound form (P63096, form named): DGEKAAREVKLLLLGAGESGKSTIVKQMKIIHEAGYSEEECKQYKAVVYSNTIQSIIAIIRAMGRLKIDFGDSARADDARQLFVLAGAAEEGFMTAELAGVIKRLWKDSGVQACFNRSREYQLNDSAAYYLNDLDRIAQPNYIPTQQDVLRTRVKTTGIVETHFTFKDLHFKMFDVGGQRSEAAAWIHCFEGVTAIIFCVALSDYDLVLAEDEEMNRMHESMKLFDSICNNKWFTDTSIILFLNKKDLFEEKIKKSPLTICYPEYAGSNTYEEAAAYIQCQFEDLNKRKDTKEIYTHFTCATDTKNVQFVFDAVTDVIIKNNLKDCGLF

Where a chain is given by its changes, count along the chain named. These are yes or no findings as the source states them, for the method shown. Where a sequence is shown, tags or fusion partners need not be part of it.

Common to all, as to assay: pull-down; GST-ferric Ngb (or GST alone) immobilised on glutathione-Sepharose 4B beads, incubated with truncated Gαi1; 10 mM HEPES, 150 mM NaCl, 10 mM MgCl2, 10 uM GDP, 0.1% Tween20, pH 7.4; 1 h at 4 °C; Western blot with anti-Gαi1 monoclonal antibody; both purified
(A western blot detects proteins with antibodies after separation by electrophoresis.)

The target in test [1] is T1, GST-human ferric E118Q Ngb mutant (human) (UniProt Q9NPG2).
T1 sequence: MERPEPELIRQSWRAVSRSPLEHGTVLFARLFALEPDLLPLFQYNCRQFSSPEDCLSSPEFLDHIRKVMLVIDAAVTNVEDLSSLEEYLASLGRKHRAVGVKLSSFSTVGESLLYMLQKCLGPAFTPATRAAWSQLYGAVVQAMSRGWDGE

In test [2] the target is T2, GST-human ferric E151N Ngb mutant (human) (UniProt Q9NPG2).
T2 sequence: T1 sequence with Q118E, E151N

The target of test [3] is T3, GST-human ferric E53Q Ngb mutant (human) (UniProt Q9NPG2).
T3 sequence: T1 sequence with E53Q, Q118E

Test [4] concerns the target T4, GST-human ferric E60Q Ngb mutant (human) (UniProt Q9NPG2).
T4 sequence: T1 sequence with E60Q, Q118E

In test [5] the target is T5, GST-human ferric R97Q Ngb mutant (human) (UniProt Q9NPG2).
T5 sequence: T1 sequence with R97Q, Q118E

Test [6] concerns the target T6, GST-human ferric WT Ngb (neuroglobin) (human) (UniProt Q9NPG2).
T6 sequence: T1 sequence with Q118E

In the case of “human WT truncated Gαi1 protein (residues 26-354), GDP-bound form (from UniProt P63096 26-354) (domain or fragment)”, the binding entry in test [1], in test [2], in test [3], in test [4] and in test [5] was “no binding” each time.
For “human truncated Gαi1 K46A single mutant, GDP-bound form (from UniProt P63096 26-354) (domain or fragment)”, the binding entry in test [6] is given as “no binding”.
Still for that read-out and setting: with “human truncated Gαi1 K70A single mutant, GDP-bound form (from UniProt P63096 26-354) (domain or fragment)” the entry was “no binding”; with “human truncated Gαi1 R208A, K209A, K210A triple mutant, GDP-bound form (from UniProt P63096 26-354) (domain or fragment)”, “no binding”.
